Read-outs that look alike come from different tables or passages of the source. No constants are given. Whether binding was seen depends on the method and setting. Binding seen in cells or lysates may run through a third protein. A yes stands for co-enrichment or nearness to the bait. Other partners may have been found.
Key:
[1] = molecular target: TAF15 (human (endogenous in HeLa)) (UniProt Q92804); assay: affinity purification with mass spectrometry; IPs from HeLa cell nuclear extract with antibodies to FUS, EWSR1, TAF15 or MATR3 cross-linked to Protein A Sepharose; Coomassie-stained gel, individual bands excised and identified by mass spectrometry
[2] = molecular target: EWSR1 (human (endogenous in HeLa)) (UniProt Q01844); assay: as above
[3] = molecular target: FUS (human (endogenous in HeLa)) (UniProt P35637); assay: as above
[4] = molecular target: SNRPC subunit of the U1 snRNP (human (endogenous in HeLa)) (UniProt P09234); assay: affinity purification with mass spectrometry; IP of the U1 snRNP machinery from HeLa nuclear extract, TCA precipitated, peptides labelled by tandem mass tag, MS3 on an Orbitrap Fusion
[5] = molecular target: TAF15 (human (endogenous in HeLa)) (UniProt Q92804); assay: affinity purification with mass spectrometry; IPs of FUS, EWSR1, TAF15 or MATR3 from HeLa nuclear extract, TCA precipitated, shotgun mass spectrometry
[6] = molecular target: EWSR1 (human (endogenous in HeLa)) (UniProt Q01844); assay: as above
[7] = molecular target: T1, MATR3 (human (endogenous in HeLa)) (UniProt P43243); assay: as above
T1 sequence: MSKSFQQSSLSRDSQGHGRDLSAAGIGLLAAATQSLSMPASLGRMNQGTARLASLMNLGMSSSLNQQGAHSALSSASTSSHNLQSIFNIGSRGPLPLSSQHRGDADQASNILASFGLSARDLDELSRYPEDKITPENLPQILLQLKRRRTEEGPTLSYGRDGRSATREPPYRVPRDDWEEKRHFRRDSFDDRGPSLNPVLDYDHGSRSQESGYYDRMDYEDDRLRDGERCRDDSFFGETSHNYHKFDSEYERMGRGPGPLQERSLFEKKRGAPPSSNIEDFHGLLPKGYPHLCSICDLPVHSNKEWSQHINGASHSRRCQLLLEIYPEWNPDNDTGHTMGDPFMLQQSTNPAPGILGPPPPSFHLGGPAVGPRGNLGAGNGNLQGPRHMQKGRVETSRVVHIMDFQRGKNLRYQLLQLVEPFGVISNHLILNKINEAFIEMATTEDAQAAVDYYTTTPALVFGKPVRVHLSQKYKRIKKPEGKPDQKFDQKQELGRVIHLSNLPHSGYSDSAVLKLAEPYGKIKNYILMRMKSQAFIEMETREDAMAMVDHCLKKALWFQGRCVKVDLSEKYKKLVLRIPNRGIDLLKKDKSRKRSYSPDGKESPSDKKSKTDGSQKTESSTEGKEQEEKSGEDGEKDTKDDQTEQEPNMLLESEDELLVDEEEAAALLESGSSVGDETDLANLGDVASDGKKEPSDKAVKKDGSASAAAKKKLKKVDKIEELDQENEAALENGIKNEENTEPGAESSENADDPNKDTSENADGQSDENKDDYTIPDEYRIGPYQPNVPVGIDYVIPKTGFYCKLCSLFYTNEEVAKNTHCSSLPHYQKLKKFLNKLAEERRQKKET

Protein sequences, listed by entry. Tags and fused reporters are not part of them.
UniProt Q92804: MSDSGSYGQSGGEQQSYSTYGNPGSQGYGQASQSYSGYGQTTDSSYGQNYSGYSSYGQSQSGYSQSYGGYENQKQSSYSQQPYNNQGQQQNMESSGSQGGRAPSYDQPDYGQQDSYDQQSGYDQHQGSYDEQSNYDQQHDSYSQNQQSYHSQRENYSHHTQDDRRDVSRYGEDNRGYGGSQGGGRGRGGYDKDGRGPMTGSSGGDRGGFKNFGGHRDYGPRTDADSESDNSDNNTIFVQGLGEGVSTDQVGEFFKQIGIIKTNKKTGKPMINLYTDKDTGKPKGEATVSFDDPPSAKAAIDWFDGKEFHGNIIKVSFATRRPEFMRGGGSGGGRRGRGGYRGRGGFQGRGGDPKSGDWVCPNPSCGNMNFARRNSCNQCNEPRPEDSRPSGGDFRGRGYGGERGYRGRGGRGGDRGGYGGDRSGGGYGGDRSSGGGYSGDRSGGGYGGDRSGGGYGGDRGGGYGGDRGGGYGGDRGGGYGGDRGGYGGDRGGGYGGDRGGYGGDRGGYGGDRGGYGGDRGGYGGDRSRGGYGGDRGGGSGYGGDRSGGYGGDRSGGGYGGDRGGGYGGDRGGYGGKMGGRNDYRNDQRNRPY
UniProt Q01844: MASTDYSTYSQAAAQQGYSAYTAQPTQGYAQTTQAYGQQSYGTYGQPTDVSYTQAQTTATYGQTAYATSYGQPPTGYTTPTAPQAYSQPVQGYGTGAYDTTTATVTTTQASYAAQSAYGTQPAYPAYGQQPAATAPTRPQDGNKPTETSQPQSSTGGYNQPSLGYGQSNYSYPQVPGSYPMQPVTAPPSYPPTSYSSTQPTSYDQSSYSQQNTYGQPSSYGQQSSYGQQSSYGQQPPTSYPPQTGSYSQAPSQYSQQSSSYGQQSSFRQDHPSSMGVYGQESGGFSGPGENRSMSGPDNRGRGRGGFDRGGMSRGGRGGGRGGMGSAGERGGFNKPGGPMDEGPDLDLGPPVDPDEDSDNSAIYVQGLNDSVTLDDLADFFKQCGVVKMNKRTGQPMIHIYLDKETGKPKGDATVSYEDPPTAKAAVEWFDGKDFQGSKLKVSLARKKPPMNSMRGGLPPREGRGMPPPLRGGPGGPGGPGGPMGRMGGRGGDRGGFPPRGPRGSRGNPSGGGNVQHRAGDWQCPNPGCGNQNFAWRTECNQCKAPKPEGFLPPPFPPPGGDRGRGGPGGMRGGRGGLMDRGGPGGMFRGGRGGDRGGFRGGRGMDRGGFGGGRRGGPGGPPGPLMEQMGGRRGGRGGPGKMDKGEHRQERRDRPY
UniProt P35637: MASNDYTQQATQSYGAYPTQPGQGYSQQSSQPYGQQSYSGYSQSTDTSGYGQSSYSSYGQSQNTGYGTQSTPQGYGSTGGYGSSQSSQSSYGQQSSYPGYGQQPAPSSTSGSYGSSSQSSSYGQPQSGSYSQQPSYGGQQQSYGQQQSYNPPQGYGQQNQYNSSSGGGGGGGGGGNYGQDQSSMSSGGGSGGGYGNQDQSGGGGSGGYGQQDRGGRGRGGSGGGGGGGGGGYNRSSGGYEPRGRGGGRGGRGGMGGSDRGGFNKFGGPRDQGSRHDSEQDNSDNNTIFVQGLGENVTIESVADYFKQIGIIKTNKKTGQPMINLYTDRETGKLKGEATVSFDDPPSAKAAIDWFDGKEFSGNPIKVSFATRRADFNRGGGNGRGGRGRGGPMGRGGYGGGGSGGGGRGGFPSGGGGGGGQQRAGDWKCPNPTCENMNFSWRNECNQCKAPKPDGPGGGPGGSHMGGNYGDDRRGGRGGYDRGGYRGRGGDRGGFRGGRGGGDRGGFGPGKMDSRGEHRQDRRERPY
UniProt P08621: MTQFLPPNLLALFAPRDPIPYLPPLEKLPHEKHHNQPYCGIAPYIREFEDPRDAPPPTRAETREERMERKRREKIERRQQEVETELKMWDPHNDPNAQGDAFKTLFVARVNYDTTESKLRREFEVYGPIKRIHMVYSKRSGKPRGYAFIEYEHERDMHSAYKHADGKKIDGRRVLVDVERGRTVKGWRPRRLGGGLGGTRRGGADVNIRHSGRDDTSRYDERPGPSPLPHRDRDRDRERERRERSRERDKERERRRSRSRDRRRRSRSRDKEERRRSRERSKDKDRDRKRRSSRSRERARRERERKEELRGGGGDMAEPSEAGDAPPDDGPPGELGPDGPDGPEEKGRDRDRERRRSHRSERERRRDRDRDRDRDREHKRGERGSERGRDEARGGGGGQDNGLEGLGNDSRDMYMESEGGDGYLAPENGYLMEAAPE
UniProt Q92841: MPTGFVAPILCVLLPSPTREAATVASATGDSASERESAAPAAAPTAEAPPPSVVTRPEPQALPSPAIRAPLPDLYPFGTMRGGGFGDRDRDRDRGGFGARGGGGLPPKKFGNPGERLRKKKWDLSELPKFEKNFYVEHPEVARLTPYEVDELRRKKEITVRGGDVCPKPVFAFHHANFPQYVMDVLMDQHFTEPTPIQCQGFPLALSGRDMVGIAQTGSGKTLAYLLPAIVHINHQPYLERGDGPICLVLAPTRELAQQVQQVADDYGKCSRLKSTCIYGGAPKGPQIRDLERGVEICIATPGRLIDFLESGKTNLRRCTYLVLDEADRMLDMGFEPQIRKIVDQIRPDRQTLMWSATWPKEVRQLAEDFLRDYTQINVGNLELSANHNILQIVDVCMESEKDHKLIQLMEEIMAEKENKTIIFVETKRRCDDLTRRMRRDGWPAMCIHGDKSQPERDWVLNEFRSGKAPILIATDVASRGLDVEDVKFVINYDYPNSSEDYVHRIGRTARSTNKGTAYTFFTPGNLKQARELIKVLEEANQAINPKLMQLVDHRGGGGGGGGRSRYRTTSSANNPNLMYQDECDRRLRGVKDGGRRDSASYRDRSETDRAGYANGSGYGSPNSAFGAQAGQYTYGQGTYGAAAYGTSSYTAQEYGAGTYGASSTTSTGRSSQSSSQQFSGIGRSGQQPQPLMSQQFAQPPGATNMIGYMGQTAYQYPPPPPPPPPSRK
UniProt P17844: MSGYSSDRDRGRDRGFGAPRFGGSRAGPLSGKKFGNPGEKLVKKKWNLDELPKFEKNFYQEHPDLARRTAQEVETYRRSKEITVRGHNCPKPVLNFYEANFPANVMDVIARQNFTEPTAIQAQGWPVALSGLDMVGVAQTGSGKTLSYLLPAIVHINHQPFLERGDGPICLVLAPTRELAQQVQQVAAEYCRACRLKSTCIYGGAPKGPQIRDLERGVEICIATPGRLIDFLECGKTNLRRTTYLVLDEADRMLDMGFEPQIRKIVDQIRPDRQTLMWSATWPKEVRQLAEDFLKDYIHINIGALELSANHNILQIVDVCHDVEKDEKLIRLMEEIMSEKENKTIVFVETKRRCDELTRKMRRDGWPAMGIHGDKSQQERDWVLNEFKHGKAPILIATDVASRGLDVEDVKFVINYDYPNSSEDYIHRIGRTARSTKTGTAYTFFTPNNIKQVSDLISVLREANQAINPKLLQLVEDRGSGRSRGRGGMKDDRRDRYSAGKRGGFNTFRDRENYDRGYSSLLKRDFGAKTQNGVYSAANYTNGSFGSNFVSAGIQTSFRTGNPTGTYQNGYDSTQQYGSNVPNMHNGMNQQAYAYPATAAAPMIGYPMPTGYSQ
UniProt P09012: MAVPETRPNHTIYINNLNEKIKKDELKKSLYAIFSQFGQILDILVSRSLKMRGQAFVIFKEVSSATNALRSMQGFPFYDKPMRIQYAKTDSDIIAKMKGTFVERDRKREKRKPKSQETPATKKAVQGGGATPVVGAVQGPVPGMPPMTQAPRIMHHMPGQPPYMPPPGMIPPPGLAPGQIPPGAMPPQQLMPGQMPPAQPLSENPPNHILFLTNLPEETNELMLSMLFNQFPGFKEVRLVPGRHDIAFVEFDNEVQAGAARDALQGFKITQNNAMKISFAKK

[8] = molecular target: FUS (human (endogenous in HeLa)) (UniProt P35637); assay: as above
[9] = molecular target: SNRPC subunit of the U1 snRNP (human (endogenous in HeLa)) (UniProt P09234); assay: affinity purification with mass spectrometry; IP of the U1 snRNP machinery from HeLa nuclear extract, TCA precipitated, peptides labelled by tandem mass tag, MS3 on an Orbitrap Fusion; remark: listed apart in the source

Measured: binding

SNRNP70 (from UniProt P08621 1-437)
binds: [1] | [2] | [3] | [4]

DDX17 (from UniProt Q92841 1-729)
binds: [4] | [5] | [6] | [7] | [8]

SNRPC subunit of the U1 snRNP (from UniProt P09234 1-159)
binds: [1] | [2] | [3]

DDX5 (from UniProt P17844 1-614)
binds: [4] | [5] | [6] | [7] | [8]

SNRPA (from UniProt P09012 1-282)
binds: [1] | [2] | [3] | [4]

FUS (from UniProt P35637 1-526)
binds: [4] | [5] | [6] | [7]

B1: MATR3 (protein, UniProt P43243 1-847)
chain: T1 sequence
binds: [9] | [5] | [6] | [8]

B2: CPSF3 (protein, UniProt Q9UKF6 1-684)
chain: MSAIPAEESDQLLIRPLGAGQEVGRSCIILEFKGRKIMLDCGIHPGLEGMDALPYIDLIDPAEIDLLLISHFHLDHCGALPWFLQKTSFKGRTFMTHATKAIYRWLLSDYVKVSNISADDMLYTETDLEESMDKIETINFHEVKEVAGIKFWCYHAGHVLGAAMFMIEIAGVKLLYTGDFSRQEDRHLMAAEIPNIKPDILIIESTYGTHIHEKREEREARFCNTVHDIVNRGGRGLIPVFALGRAQELLLILDEYWQNHPELHDIPIYYASSLAKKCMAVYQTYVNAMNDKIRKQININNPFVFKHISNLKSMDHFDDIGPSVVMASPGMMQSGLSRELFESWCTDKRNGVIIAGYCVEGTLAKHIMSEPEEITTMSGQKLPLKMSVDYISFSAHTDYQQTSEFIRALKPPHVILVHGEQNEMARLKAALIREYEDNDEVHIEVHNPRNTEAVTLNFRGEKLAKVMGFLADKKPEQGQRVSGILVKRNFNYHILSPCDLSNYTDLAMSTVKQTQAIPYTGPFNLLCYQLQKLTGDVEELEIQEKPALKVFKNITVIQEPGMVVLEWLANPSNDMYADTVTTVILEVQSNPKIRKGAVQKVSKKLEMHVYSKRLEIMLQDIFGEDCVSVKDDSILSVTVDGKTANLNLETRTVECEEGSEDDESLREMVELAAQRLYEALTPVH
binds: [9]

B3: HTATSF1 (protein, UniProt O43719 1-755)
chain: MSGTNLDGNDEFDEQLRMQELYGDGKDGDTQTDAGGEPDSLGQQPTDTPYEWDLDKKAWFPKITEDFIATYQANYGFSNDGASSSTANVEDVHARTAEEPPQEKAPEPTDARKKGEKRKAESGWFHVEEDRNTNVYVSGLPPDITVDEFIQLMSKFGIIMRDPQTEEFKVKLYKDNQGNLKGDGLCCYLKRESVELALKLLDEDEIRGYKLHVEVAKFQLKGEYDASKKKKKCKDYKKKLSMQQKQLDWRPERRAGPSRMRHERVVIIKNMFHPMDFEDDPLVLNEIREDLRVECSKFGQIRKLLLFDRHPDGVASVSFRDPEEADYCIQTLDGRWFGGRQITAQAWDGTTDYQVEETSREREERLRGWEAFLNAPEANRGLRRSDSVSASERAGPSRARHFSEHPSTSKMNAQETATGMAFEEPIDEKKFEKTEDGGEFEEGASENNAKESSPEKEAEEGCPEKESEEGCPKRGFEGSCSQKESEEGNPVRGSEEDSPKKESKKKTLKNDCEENGLAKESEDDLNKESEEEVGPTKESEEDDSEKESDEDCSEKQSEDGSEREFEENGLEKDLDEEGSEKELHENVLDKELEENDSENSEFEDDGSEKVLDEEGSEREFDEDSDEKEEEEDTYEKVFDDESDEKEDEEYADEKGLEAADKKAEEGDADEKLFEESDDKEDEDADGKEVEDADEKLFEDDDSNEKLFDEEEDSSEKLFDDSDERGTLGGFGSVEEGPLSTGSSFILSSDDDDDDI
binds: [9]

B4: HNRNPR (protein, UniProt O43390 1-633)
chain: MANQVNGNAVQLKEEEEPMDTSSVTHTEHYKTLIEAGLPQKVAERLDEIFQTGLVAYVDLDERAIDALREFNEEGALSVLQQFKESDLSHVQNKSAFLCGVMKTYRQREKQGSKVQESTKGPDEAKIKALLERTGYTLDVTTGQRKYGGPPPDSVYSGVQPGIGTEVFVGKIPRDLYEDELVPLFEKAGPIWDLRLMMDPLSGQNRGYAFITFCGKEAAQEAVKLCDSYEIRPGKHLGVCISVANNRLFVGSIPKNKTKENILEEFSKVTEGLVDVILYHQPDDKKKNRGFCFLEYEDHKSAAQARRRLMSGKVKVWGNVVTVEWADPVEEPDPEVMAKVKVLFVRNLATTVTEEILEKSFSEFGKLERVKKLKDYAFVHFEDRGAAVKAMDEMNGKEIEGEEIEIVLAKPPDKKRKERQAARQASRSTAYEDYYYHPPPRMPPPIRGRGRGGGRGGYGYPPDYYGYEDYYDDYYGYDYHDYRGGYEDPYYGYDDGYAVRGRGGGRGGRGAPPPPRGRGAPPPRGRAGYSQRGAPLGPPRGSRGGRGGPAQQQRGRGSRGSRGNRGGNVGGKRKADGYNQPDSKRRQTNNQQNWGSQPIAQQPLQQGGDYSGNYGYNNDNQEFYQDTYGQQWK
binds: [5] | [6] | [7] | [8]

— article PMC5993797
